## Results of single-concentration screens

Sequences of proteins named here, by UniProt entry; tags and fusion partners are left off.
UniProt P9WNZ1, whole entry: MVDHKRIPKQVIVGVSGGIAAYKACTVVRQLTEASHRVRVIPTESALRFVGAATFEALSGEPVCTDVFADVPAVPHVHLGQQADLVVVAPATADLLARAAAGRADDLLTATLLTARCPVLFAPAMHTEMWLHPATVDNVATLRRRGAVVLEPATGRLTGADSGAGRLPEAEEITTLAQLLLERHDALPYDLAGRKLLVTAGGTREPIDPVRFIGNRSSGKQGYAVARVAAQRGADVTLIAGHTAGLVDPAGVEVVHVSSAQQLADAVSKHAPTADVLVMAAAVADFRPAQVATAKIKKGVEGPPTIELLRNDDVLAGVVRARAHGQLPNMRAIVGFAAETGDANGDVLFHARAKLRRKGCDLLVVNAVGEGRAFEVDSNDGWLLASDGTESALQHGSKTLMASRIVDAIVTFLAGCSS

Measurements from “University of Dundee, Small-Polar-MMV Screening Library” (2021), ChEMBL document CHEMBL3988442.

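Enzyme assay of CoaBC with a phosphate dye (Biomol Green) read at 650 nm. Target: Coenzyme A biosynthesis protein CoaBC, Mycobacterium tuberculosis (UniProt P9WNZ1). Tested at 30 µM. Higher reads as stronger inhibition, judged from the few compounds that gave an IC50. Most strong results did not repeat in a second test. Of about 67,000 compounds tested this way, about 40 (0.06%) reached 50% or more in at least one test.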

Each number is a percent effect as filed. The controls that fix the scale are not given in the record; negative values are as filed. The compounds are a random part of those screened.

O=C(c1ccc[nH]1)N1CCc2cc(S(=O)(=O)N3CCOCC3)ccc2C1 gave 1.818%.
CC(C)c1nnc(CN2CCCc3ccc(S(N)(=O)=O)cc32)o1 gave 0.6369%.
Cc1nc(N2CCCC2)nc2c1CCN(Cc1nccn1C)CC2 gave 4.827%.
CCOCCC(=O)Nc1cc(C)cnc1OC gave 2.917%.
CC(C)N(C)Cc1ncn2c1CN(CC(=O)N(C)C)CCC2 gave -6.762%.
CS(=O)(=O)N1CCCC12CCCN(C(=O)c1ccnnc1)C2 (stereo not given) gave -1.402%.
O=C(COc1ccc2c(c1)OCC2O)NCc1ccco1 (stereo not given) gave -36.42%.
Cc1cnn(CC2CCCN2C(=O)c2ccc(OC(C)C)nc2)c1 (stereo not given) gave 3.886%.
COC(=O)C(C)(C)NC(=O)c1cc2sc(N(C)C)nc2s1 gave 1.373%.
CCCOc1cc(C)ccc1NC(=O)NCCNC(C)=O gave 12.51%.
COC(=O)c1cccc2nc([C@H]3CCN(C4CCN(C)CC4)C3)oc12 gave -38.31%.
Cc1cnc(NCC(C)(C)N2CCOCC2)nc1 gave 1.485%.
CC(C)N(C)C(=O)c1ccc(CNc2cncc(Cl)n2)cc1 gave 5.762%.
O=C(CSC1=NS(=O)(=O)c2cc(F)ccc2N1)Nc1ccc(Cl)c(Cl)c1 gave -0.9223%.
COCC(C)N1CCc2onc(-c3ccc(F)c(F)c3)c2C1 (stereo not given) gave 1.118%.
Cc1noc(C)c1CN(C)C(=O)NC1CCCN(S(C)(=O)=O)C1 (stereo not given) gave 4.737%.
Cc1csc(N2CCCN(C(=O)c3c(C)oc(C)c3C)CC2)n1 gave 1.173%.
CCc1noc(CN2CCC(c3ccnn3CCO)CC2)n1 gave 11.59%.
Cn1nc2c(cc1=O)CN(CCOc1ccccc1C#N)CC2 gave -0.3797%.
Cc1nnsc1C(=O)N1CCN(C(=O)C2CCC2)[C@@H]2CS(=O)(=O)C[C@@H]21 gave 5.782%.
NC(=O)CC1CCN(C(=O)c2cnc(-c3ccccc3F)s2)CC1 gave -1.952%.
Cn1ccnc1CN1CCC2(CC(=O)N(c3ccccn3)C2)C1 (stereo not given) gave 3.832%.
CN(Cc1cnn(C)c1)C(=O)c1ccc(=O)n(Cc2ccccc2)n1 gave 5.654%.
CNC(=O)[C@@]12CCC3(CCNCC3)[C@@H]1CN(S(C)(=O)=O)C2 gave -4.198%.
CCN(CC)CCNC(=O)c1ccn(COc2cc(C)cc(C)c2)n1 gave 7.941%.
CSCc1noc(C2CCC(=O)N(CCCN3CCCC3=O)C2)n1 (stereo not given) gave -0.7712%.
COCC1CN(Cc2ccoc2)Cc2nn(CC3CC3)cc21 (stereo not given) gave 9.023%.
CCn1cc(NC(=O)NCC(C)O)cn1 (stereo not given) gave -5.398%.
Cc1ccc(CN(C)C(=O)CN2CCCC2c2cnn(C)c2)o1 (stereo not given) gave -6.09%.
CCN(CC)Cc1cc(C(=O)N2CCCC(O)(CO)C2)c(C)o1 (stereo not given) gave 1.935%.
CN(C)S(=O)(=O)N1C[C@@H]2CC[C@H](C1)N(Cc1ccc3[nH]ccc3c1)C2 gave 6.909%.
Cn1c(N)nnc1SCC1OCCc2ccccc21 (stereo not given) gave 5.305%.
CC(=O)Nc1cccc(-c2ccccc2CCN)c1 gave -0.3501%.
COc1ccc(CN2C[C@H](O)C[C@H]2c2nc(-c3ccccc3)no2)cc1 gave -3.548%.
COCCN1C(=O)[C@H]2CC[C@@H]1CN(Cc1nnc(-c3ccccc3)o1)C2 gave 5.124%.
CN(Cc1ccc(C(=O)NCC2COCCO2)c(=O)[nH]1)CC(C)(C)C (stereo not given) gave -4.224%.
COCCCN(C)S(=O)(=O)c1ccc(C(F)(F)F)cc1C#N gave 1.261%.
CCOCc1nc2c(c(N3CC=CC3)n1)CCN(C1CCOCC1)CC2 gave 9.287%.
Cc1c(Cl)cccc1NC(=O)N1CCN(Cc2ccccn2)CC1 gave -11.6%.

For reference, 3 entries once more:

* CN(Cc1ccc(C(=O)NCC2COCCO2)c(=O)[nH]1)CC(C)(C)C (stereo not given) : -4.224%
* Cc1csc(N2CCCN(C(=O)c3c(C)oc(C)c3C)CC2)n1 : 1.173%
* COC(=O)C(C)(C)NC(=O)c1cc2sc(N(C)C)nc2s1 : 1.373%